PubChem BioAssay AID504793, Drosophila RNAi Screening Center, 2011
Aim: 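Whole-genome screen for parts of the DNA damage checkpoint at G2/M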 (primary screen). Cell system: Drosophila S2R+ cells. Reagent: long dsRNA against Drosophila genes, about 0.25 µg dsRNA per well. Duration: 4 days of dsRNA, then 4 hours of drug before read-out. Conditions: doxorubicin 0.5 µM for 4 hours to cause double-strand breaks, in cells also given a low, harmless dose of dsRNA against nbs to sensitise the assay. Read-out: 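Mitotic index as the number of phospho-histone H3-positive cells in each well following doxorubicin, given as raw counts without normalisation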. Direction: mitotic cells: higher = more cells in mitosis, weaker G2 arrest. Hit rule: 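Genes are called active only when high mitotic counts were reproduced with independent dsRNAs and mitosis was checked for delay without damage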. Calls: active = confirmed in follow-up tests; inactive = not confirmed.
The deposit covers about 23,000 reagents; this is an unselected part of those with a known target gene and a result. In the full data, 62 (0.27%) were called active. 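Calls come from follow-up tests whose scores are not deposited, so confirmed genes may have low counts here; counts are not normalised per plate.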 The raw values are shown without normalisation. Entries without a mark were called inactive. Names joined by + are all predicted targets of the reagent. Reagent sequences are not shown.

| Target gene | dsRNA | mitotic cells, replicate 1 | mitotic cells, replicate 2 |
| --- | --- | --- | --- |
| CG7408 | DRSC10841 | 5 | – |
| Glut1 | DRSC07927 | 16 | – |
| Glut1 | DRSC08662 | 3 | – |
| dgt6 | DRSC14424 | 77 | – |
| Ae2 | DRSC08997 | 9 | – |
| Ae2 | DRSC10969 | 4 | – |
| dgt3 | DRSC04349 | 135 | – |
| Zmynd8 | DRSC15310 | 4 | – |
| Zmynd8 | DRSC29554 | 3 | – |
| RpS29 + snoRNA:Psi18S-1275 | DRSC16433 | 9 | – |
| CG5080 | DRSC00677 | 8 | – |
| CG6462 | DRSC10641 | 3 | – |
| CG6462 | DRSC24608 | 2 | – |
| mRpL32 | DRSC14479 | 17 | – |
| Npc2c | DRSC15523 | 7 | – |
| Npc2c | DRSC28593 | 6 | – |
| Chsy | DRSC20175 | 10 | – |
| Chsy | DRSC20176 | 10 | – |
| mRpS9 | DRSC12645 | 6 | – |
| mRpS9 | DRSC15456 | 3 | 14 |
| CG13323 | DRSC06360 | 9 | – |
| CG9839 | DRSC16574 | 5 | – |
| Arpc5 | DRSC00730 | 4 | – |
| stau | DRSC07698 | 7 | – |
| CG10208 | DRSC14211 | 14 | – |
| Cmpk | DRSC16643 | 17 | – |
| CG10479 | DRSC23395 | 8 | – |
| Tsen34 + Trl | DRSC10014 | 13 | – |
| CG14760 | DRSC06495 | 2 | – |
| CG14760 | DRSC23957 | 11 | – |
| CG32237 | DRSC08312 | 5 | – |
| CG32237 | DRSC08315 | 6 | – |
| CG32237 | DRSC29288 | 5 | – |
| Ctr1C | DRSC15089 | 19 | – |
| BNIP3 | DRSC11761 | 5 | – |
| CG13616 | DRSC14619 | 8 | – |
| ics | DRSC01878 | 2 | – |
| ics | DRSC29655 | 7 | – |
| CG5001 | DRSC00673 | 3 | – |
| CG5001 | DRSC26191 | 5 | – |
| milt | DRSC00965 | 6 | – |
| milt | DRSC00966 | 5 | – |
| milt | DRSC02281 | 5 | – |
| milt | DRSC28963 | 5 | – |
| mod(mdg4) | DRSC13478 | 23 | – |
| mod(mdg4) | DRSC15042 | 5 | – |
| mod(mdg4) | DRSC17000 | 19 | – |
| Uxt | DRSC01962 | 4 | – |
| Gs2 | DRSC20250 | 17 | – |
| Gs2 | DRSC26818 | 11 | – |
| form3 | DRSC10195 | 4 | – |
| form3 | DRSC10297 | 2 | – |
| form3 | DRSC11024 | 3 | – |
| CG7065 | DRSC18420 | 5 | – |
| CG7065 | DRSC25280 | 3 | – |
| M7BP | DRSC05932 | 7 | – |
| vas (retired record) | DRSC22007 | 10 | – |
| BCAS2 | DRSC15693 | 8 | – |
| BCAS2 | DRSC28064 | 5 | – |
| CG6321 | DRSC10623 | 8 | – |
| Nek2 | DRSC18124 | 18 | – |
| Nek2 | DRSC26714 | 4 | – |
| CG15522 | DRSC15059 | 16 | – |
| CG15522 | DRSC29412 | 8 | – |
| mino | DRSC14132 | 12 | – |
| AANATL4 | DRSC06774 | 21 | – |
| GNBP-like3 | DRSC06385 | 4 | – |
| CG15203 | DRSC19650 | 5 | – |
| CG13579 | DRSC04215 | 4 | – |
| CG13579 | DRSC25603 | 5 | – |
| Syx8 | DRSC10402 | 9 | – |
| Syx8 | DRSC22498 | 11 | – |
| Syx8 | DRSC27747 | 7 | – |
| emp | DRSC04019 | 6 | – |
| emp | DRSC04683 | 1 | – |
| CG10553 | DRSC14254 | 11 | – |
| CG3650 | DRSC04401 | 4 | – |
| CG3650 | DRSC28976 | 1 | – |
| CG2187 | DRSC15425 | 12 | – |
| CG2187 | DRSC25548 | 7 | – |
| Fmo-2 | DRSC04983 | 4 | – |
| CG30127 (retired record) | DRSC05785 | 16 | – |
| CG30127 (retired record) | DRSC05786 | 30 | – |
| CG30127 (retired record) | DRSC23535 | 2 | – |
| alphaCOP | DRSC08706 | 9 | – |
| CG13078 | DRSC02182 | 5 | – |
| Nca | DRSC11233 | 11 | – |
| Nph | DRSC16342 | 17 | – |
| CG42527 (retired record) + Hr4 | DRSC23080 | 10 | – |
| CG42527 (retired record) + Hr4 | DRSC23251 | 17 | – |
| CG42527 (retired record) + Hr4 | DRSC27857 | 4 | – |
| CG42527 (retired record) + Hr4 | DRSC28298 | 3 | – |
| CG14142 | DRSC10145 | 4 | – |
| CG14142 | DRSC26658 | 9 | – |
| Mekk1 | DRSC16302 | 8 | – |
| Mekk1 | DRSC16303 | 7 | – |
| cert | DRSC09674 | 1 | – |
| CG8180 | DRSC07092 | 6 | – |
| CG8180 | DRSC07093 | 7 | – |
| Mst27D | DRSC00967 | 11 | – |
| phr6-4 | DRSC03589 | 5 | – |
| phr6-4 | DRSC26873 | 4 | – |
| MrgBP | DRSC06417 | 10 | – |
| MrgBP | DRSC29948 | 13 | – |
| Lamtor4 | DRSC08436 | 3 | – |
| numb | DRSC03584 | 4 | – |
| CG33223 | DRSC17572 | 10 | – |
| CG33223 | DRSC26875 | 7 | – |
| CG43333 | DRSC23265 | 10 | – |
| CG43333 | DRSC27202 | 3 | – |
